According to PubChem BioAssay AID1508600 (Functional Genomics Laboratory (NCATS/FGL), 2020):
Out of some 53,000 sequences screened, about 3,700 (7%) were called active.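 Rule for the calls: active = gene knockdowns whose robust z-score for IL-1 alpha signal is at least 2 or at most -2, so actives lie on both sides; inactive = the rest.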 Some of the results follow.

Assay: Components of the Cytosolic LPS Sensing Pathway: Gene Identification via Genome-wide siRNA Screen;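 note: robust z of the log signal after scaling to non-targeting control siRNA wells of the plate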
Conditions: RAW264.7 macrophages, IL-1a HTRF, actives lie on both sides, screened at 100 nM (by protocol), cells primed 5 h with Pam3CSK4 first
Procedure, shortened: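 IL-1a HTRF of supernatants after 24 hour LipidA transfection of Pam3CSK4-primed (5 hours) RAW264.7 cells, 48h post-siRNA transfection (100 nM). Scores: percent of plate negative-control median, then log-based robust z-score.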

| Sequence | z-score |
| --- | --- |
| GCCAAUGGGUUGGUAAGAUTT against Fndc9 | inactive: 0.151 |
| GCGACAUGGGUUAAAAGAATT against Nr4a3 | inactive: -1.16 |
| GGUAUAUUGGGACCUUUAUTT against Fcgr1 | inactive: 1.08 |
| GGUAAUUGGGCGACACCAUTT against Sh3bgrl2 | inactive: -0.43 |
| GGAGGAAUUCUCCAAGCUGTT against Hsd3b1 | inactive: -1.26 |
| GGUGGAGUCUACAAUUCUCTT against Ctsb | inactive: 0.314 |
| CCAUUAGCUCCAUUCUUUCTT against Atp6v0d2 | inactive: 0.29 |
| GGUUAUAGAUGUAAAGUCUTT against Isg20l2 | inactive: -0.847 |
| CAUGUUAUCACUUUUUGGCTT against Coq2 | inactive: 0.93 |
| GGAGUUUUUACAGAAAAUGTT against Scin | inactive: 0.202 |
| GCCAUCAGAAUUCGAUACATT against 2900092C05Rik | inactive: 1.68 |
| GGUUCAGAUCCAUCACUCGTT against Rab39b | inactive: -1.19 |
| CCCUGGGAAGUGGAUUCAUTT against Olfr694 | inactive: 1.03 |
| GUGAGACUAAGUUACGCGATT against Olfr1501 | inactive: 0.675 |
| GGGUGGAAGCUUUUUAAUATT against Memo1 | inactive: -0.522 |
| GAUUUGAGACCCAGAUCAUTT against Gzmm | active: 2.08 |
| GGACAUAGAGAACAUCAUCTT against Cabp7 | active: 4.02 |
| GGUCUUUUUGCCUGGUUUUTT against Akap10 | inactive: 1.92 |
| GGACAUGCUAUAAUGUAUUTT against Zkscan1 | inactive: 0.376 |
| GCUUCUCAGACAAAUAUGGTT against Plin4 | inactive: -1.2 |
| GCUUUUAUGCAGCUAAACGTT against Ecpas | inactive: -0.714 |
| GCGGCACUUUAUCAUUAUCTT against Hint3 | inactive: 0.398 |

| Sequence | z-score |
| --- | --- |
| GGAAGGUAUUACGUCAAAUTT against Sec24a | inactive: 0.368 |
| GGAAAGGAGAACAAAGUUCTT against Tnfsf8 | inactive: -0.823 |
| GCCCGACCUGUUGAGAAGATT against Znhit3 | inactive: 1.43 |
| GGUUUCUGCGUCUUCACCCTT against Nr3c1 | inactive: -1.28 |
| CCAGAGAGCCUUUUGUUUUTT against Mrfap1 | inactive: 0.524 |
| GGCACAUGGUUUCUGACCUTT against Clcf1 | inactive: 0.927 |
| GAAGCUCAUAGUGACUGUCTT against Vmn1r25 | inactive: -1.26 |
| GGACAUCUUUUCAAACGUGTT against Acap1 | inactive: -1.09 |
| GGAUUGGUUUAGUCAAUAATT against Psmc4 | active: -2.03 |
| GGCAGUUUUUGGACUGUCCTT against Olfr556 | inactive: -0.21 |
| GCUAAGAGAGAACAUUGAGTT against Lrr1 | inactive: 1.41 |
| CAGAUCCAUCUCUUAAUGGTT against Olfr204 | inactive: 0.383 |
| GGGAUCUGGAUGAGGUCAATT against Tcf7l1 | active: 3.02 |
| GGGAAAGCACUCCAACACATT against Frem1 | active: -2.12 |
| GCUGCUGAUUCAAUUCUAUTT against Ago4 | inactive: 1.49 |
| GGCCAUCAUUGUCACCGUGTT against Adra2a | inactive: 0.955 |
| GCGGCCAGUUCGUUAUAUUTT against Abi2 | inactive: 0.19 |
| CCUGGAUAAAGAUUUUAGATT against Olfr722 | inactive: -0.486 |
| CCAUGCAGCAAAUCGAGUUTT against Klk1b5 | inactive: 0.912 |
| GGCUAGCCUUGAAUUUAUGTT against Trp53rkb | inactive: 0.0703 |
| GGACCACCAGACAUUCUUUTT against St7 | inactive: -0.0638 |
| GCCACUACUUGAUCUAUCATT against Cd34 | inactive: 0.944 |

| Sequence | z-score |
| --- | --- |
| CCCAAUUGGAAACCUGAACTT against Actn3 | inactive: -1.65 |
| GGCAAAAGGAAGGUAGCCUTT against Cdyl | inactive: 0.574 |
| GGAGAUGUCAAUCAAACCCTT against Tmem26 | inactive: -1.11 |
| GGCAGAGAUGGUGUUGAUGTT against Col1a2 | inactive: -0.342 |
| GCAACGAGUGUGUUUUCUGTT against Spink10 | active: 2.25 |
| GGCAGAAUUGUGGAGUUCGTT against Cblc | inactive: -0.213 |
| CCGUUGUAUUUAUGUUUGCTT against Mrgprb5 | inactive: 0.52 |
| GGUGACAGUCACCAAAGAATT against Clstn1 | inactive: -1.21 |
| CCACCAUGUUUUAUUCCAATT against Glod5 | inactive: -0.82 |
| GCUUAUGUUUCUGCCACUCTT against Olfr1136 | inactive: 0.124 |
| GGGAGGAAUAGCACAGUCATT against Olfr1440 | inactive: 0.0568 |
| GCACAUUUGGACAACCAAUTT against AU018091 | inactive: -0.973 |
| GGUCACUGUCCACAUUUAUTT against Pitrm1 | inactive: 0.764 |
| CGAACUCUGCUACUACACATT against Zfp846 | inactive: 0.738 |
| GCAUUAUCAGAACCAAGGGTT against Spdye4a | inactive: -1.06 |
| GGUGGAUGUCACCAGCAAGTT against Sh3gl1 | inactive: 0.168 |
| GGGUGAAUUAAAUUAGUUGTT against Aadacl2fm1 | inactive: -0.104 |
| GGAAAUGUCAUGACCUUGATT against Tnfaip6 | inactive: -1.89 |
| GCAUUUAGAAGAAUCCGCCTT against Hao2 | active: 2.01 |
| GGUUCUAGGAAAAUUAGGUTT against Olfr575 | inactive: 1.19 |
| CCGUAGUAGAGAAAUUACATT against Exoc6 | inactive: 0.419 |
| GGUCCCUGGACCAAAGAAGTT against Myb | inactive: -0.578 |

Single entries from above.
In z-score, GAUUUGAGACCCAGAUCAUTT against Gzmm is listed with active: 2.08
In z-score, GGACAUCUUUUCAAACGUGTT against Acap1 is listed with inactive: -1.09

Later entries

| Sequence | z-score |
| --- | --- |
| GGAUUCAGCUCUCAUCAGATT against A930012O16Rik | inactive: -0.444 |
| GCCACGCACUAUAAAGAUUTT against Cyth1 | inactive: -0.532 |
| GGUAGAGCUCACAAGAUCATT against Gmpr2 | inactive: -0.176 |
| GGGAGCAAAUUAGAGAAAUTT against Gsk3b | inactive: 0.884 |
| GGAAAUGCGCCAUGAGUUGTT against Soga3 | inactive: -0.124 |
| GGUUUUCACAAGACCUCUGTT against Ptgdr | inactive: 0.904 |
| GGCUUCGCUAACCAUAGUUTT against Prtg | inactive: -1.1 |
| CCAAGCUUACACUAGUGUUTT against Cdk6 | inactive: -0.429 |
| GGUCACUCCCACAUUUCACTT against Spred1 | inactive: -1.73 |
| CGAUUCUGAAGCUCCCAUCTT against Olfr684 | inactive: 0.638 |
| GGAAAAGAGUGAUUUCCUATT against Fsd1l | inactive: 1.29 |
| GGUGGAGUUUGACGAUUCCTT against Car5a | inactive: 0.697 |
| GGAAGUGGUUUGAGCCAUCTT against Slc37a4 | inactive: -1 |
| GGAACCCUCCGAAGACUAUTT against Pml | inactive: 0.97 |
| GGCCAAGACCUCAGAGAUUTT against Apoa2 | inactive: -1.39 |
| GGAAGAGGAAAUGGAAUCATT against Mrnip | inactive: 1.42 |
| CCUCCUGAGGAAACGAUUUTT against Tdh | inactive: 0.0107 |
| GCAUUCCAUGGUACAGGGUTT against Adamts4 | inactive: -0.646 |
| CGAUAUGGCUGGAUUCCAUTT against 4930471G03Rik | inactive: 1.12 |
| GCAGUGUAUACCUGGGCUATT against 1700001C19Rik | inactive: 0.388 |
| GCUGUGUGCUAUUUCCCACTT against Flywch2 | inactive: 1.52 |
| CCGAAUUCGGUUUAAGCUCTT against Gtf2ird1 | inactive: -0.0731 |

Two entries picked at random from the list so far:

| Sequence | z-score |
| --- | --- |
| GGAGAUGUCAAUCAAACCCTT against Tmem26 | inactive: -1.11 |
| GCGACAUGGGUUAAAAGAATT against Nr4a3 | inactive: -1.16 |

The list goes on:

| Sequence | z-score |
| --- | --- |
| GCUUACGUAGGAAAUCUCCTT against Eif4h | inactive: -0.00512 |
| GGAGAAAAGCAAUAAUGAATT against Klf12 | inactive: -1.07 |
| GGAAAUAGUACAGAAACCATT against Mcph1 | active: -2.44 |
| GGCACACUCUCGCAUCUAATT against Lcn4 | inactive: -0.735 |
| CCAGGUUGUAAAAACAGUUTT against Rdx | inactive: -0.356 |
| GGACAUCAUAUUCGUUUUCTT against C130026L21Rik | inactive: 1.12 |
| GGAAAGAGAAAAACAACCATT against Cngb3 | inactive: -0.522 |
| GCCUGGACAAGUUUCUGAATT against Olfr726 | inactive: 0.0426 |
| AAACGAUUCUGCAUUUAGCTT against Crh | inactive: 1.5 |
| CCAAAACCGCACAGUAGUATT against Olfr1065 | inactive: 0.0232 |
| CGAGUAUUUUGAAAUCCUGTT against Cdcp3 | inactive: 0.406 |
| GGAGAUUUACCGCUACAGUTT against Scrib | inactive: 0.855 |
| GUCCUUGGGACAUUCUCUUTT against Olfr168 | inactive: -0.997 |
| GCCAAUACCUAAGUUCUAUTT against F8a | inactive: 0.297 |
| GGAACAAAAAGAUCUUUGATT against Pdzrn3 | inactive: -1.01 |
| GGUGAACAGUUGAUUUCAUTT against Smim10l2a | inactive: 1.48 |
| GGAAAUACAAGCCUUAAAUTT against Trabd | inactive: 0.5 |
| GGCUGCAAGGACAAGAGAATT against Fam174c | inactive: 1.66 |
| GGCUGUGUUGAAAGUUUUCTT against Olfr564 | inactive: 0.32 |
